Assay results reported in the supplement of paper PMC4371806.
In all, about 2,300 compounds were measured (“plate-normalized OD600 growth (mean of duplicates)”: median about 0.29, lowest 2% from about 0.22 on). Some of the results follow.

System: Escherichia coli BW25113
Assay: plate-normalized OD600 growth (mean of duplicates) (OD600 (normalized)); higher = more growth (less inhibition)
Conditions: 10 µM
Experimental: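 E. coli BW25113 in LB (100 µl, 96-well, no shaking) was exposed to 10 µM of each compound from a ~30,000-member library and grown at 37°C for 24 h or 15°C for 48 h, in duplicate. Growth was read as OD600 and the duplicate ODs were normalized across screening plates to correct plate-to-plate variation. Hits were >3σ below the mean OD600 at 15°C and <2σ below the mean at 37°C.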

Row | Compound | plate-normalized OD600 growth (temperature: 15°C, 48 h) | plate-normalized OD600 growth (temperature: 37°C, 24 h)
1 | CCNC(=S)Nc1c(C)n(C)n(-c2ccccc2)c1=O | 0.256 | 0.666
2 | OC(C#CCN1CCCC1)c1ccccc1 (configuration not stated) | 0.228 | 0.644
3 | N#CCc1nnc2n1CCCCC2 | 0.235 | 0.604
4 | Nc1cccc(C(=O)Nc2nccs2)c1 | 0.26 | 0.627
5 | COC(=O)c1ccc(S(=O)(=O)N2CCC(C(N)=O)CC2)n1C | 0.224 | 0.623
6 | O=C(OCCCC(F)(F)C(F)(F)F)c1ccccc1C(=O)n1nnc2ccccc21 | 0.218 | 0.618
7 | CCc1ccc(O)c(N=Cc2ccc(Cl)cc2Cl)c1 | 0.236 | 0.611
8 | O=C1Nc2ccccc2/C1=N/N1C(=O)N/C(=C\c2ccc(Cl)cc2Cl)C1=O | 0.255 | 0.634
9 | O=C(NCCCn1ccnc1)c1cc2nc(-c3ccco3)cc(C(F)(F)Cl)n2n1 | 0.243 | 0.621
10 | CCOC(=O)c1ccc(Oc2ncc(C(F)(F)F)cc2Cl)cc1 | 0.245 | 0.602
11 | COc1cc(/C=N\Nc2nncn2N)ccc1OC(C)=O | 0.241 | 0.607
12 | Cc1ccc2c(c1)/C(=C/c1ccccc1)c1cnc(/C=C/c3ccccc3)cc1-2 | 0.274 | 0.61
13 | O=C1CCc2cccc3cccc1c23 | 0.235 | 0.604
14 | O=C1CCCC2=C1C(c1cccnc1)Nc1ccc3ccccc3c12 (configuration not stated) | 0.244 | 0.61
15 | c1cc2c(cc1N=C1SCC3CCCCN13)OCO2 (configuration not stated) | 0.25 | 0.605
16 | NC(=S)N/N=C\c1ccccc1 | 0.239 | 0.608

Two entries drawn at random from those above, as already listed:
Row | Compound | plate-normalized OD600 growth (temperature: 15°C, 48 h) | plate-normalized OD600 growth (temperature: 37°C, 24 h)
1 | CCNC(=S)Nc1c(C)n(C)n(-c2ccccc2)c1=O | 0.256 | 0.666
14 | O=C1CCCC2=C1C(c1cccnc1)Nc1ccc3ccccc3c12 (configuration not stated) | 0.244 | 0.61

More results follow:

Row | Compound | plate-normalized OD600 growth (temperature: 15°C, 48 h) | plate-normalized OD600 growth (temperature: 37°C, 24 h)
17 | O=C1CNC(=S)N1CCc1ccccn1 | 0.25 | 0.659
18 | CC[C@@H]1[C@H]2CCCCN3[C@H]2[C@H](C[C@H]3[C@@H]2C[C@H](C)C(=O)O2)[C@@H]2[C@H]1OC(=O)[C@H]2C | 0.238 | 0.609
19 | Cc1ccc(NS(=O)(=O)c2ccc3[nH]c(=O)oc3c2)cc1 | 0.238 | 0.648
20 | O=[N+]([O-])c1ccc(-c2ncn[nH]2)cc1 | 0.209 | 0.607
21 | O=C1c2ccccc2C(=O)N1CN(CCSc1ccccc1)CN1C(=O)c2ccccc2C1=O | 0.241 | 0.596
22 | CCOc1cc(-c2c(C#N)c(N)nc(-c3ccccc3)c2CC)ccc1O | 0.251 | 0.649
23 | CCCCN1C(=O)C2C(CC)NC3(C(=O)N(Cc4ccccc4Cl)c4ccccc43)C2C1=O (configuration not stated) | 0.241 | 0.623
24 | OC1c2cc(Br)cc(Br)c2OCC1(CN1CCCCC1)CN1CCCCC1 (configuration not stated) | 0.26 | 0.647
25 | O=C(COC(=O)c1ccccc1-c1ccccc1)c1ccc(Br)cc1 | 0.249 | 0.608
26 | NNC(=O)Cn1c2ccccc2n2cc(-c3ccccc3)cc12 | 0.229 | 0.608
27 | O=C1c2ccccc2-c2nc3ncnn3c(-c3ccccc3Cl)c21 | 0.254 | 0.612
28 | CCN1CCN(CCC(=O)Nc2ccccc2)CC1 | 0.228 | 0.624
29 | CC(C)(C)S(=O)(=O)/C(C#N)=C/N1CCCCC1 | 0.267 | 0.62
30 | Nc1nc2ccc(N3CCOCC3)cc2s1 | 0.245 | 0.61
31 | COc1ccc([C@H]2[C@H](C(=O)C(C)(C)C)N3C=Cc4ccccc4[C@H]3C2(C#N)C#N)cc1 | 0.25 | 0.63
